This is an account of results in US6916802B2, “Amino ceramide-like compounds and therapeutic methods of use” (Genzyme Corporation, priority 2002, dated 2005).

The data set concerns MDCK cells. The data set can be described thus: Cell growth of treated MDCK cells, total protein (Specific Example 2). The format is cell-based, canine. The procedure:
Cell culture and lipid extraction. One half million of MDCK cells were seeded into 10 cm style dish containing 8 ml serum free DMEM supplemented medium. Shayman, J. A. et al., J. Biol. Chem., 265:12135-12138 (1990). After 24 h the medium was replaced with 8 ml of the medium containing 0, 11.8, 118 or 1180 nM D-t-P4, D-t-3′,4′-ethylenedioxy-P4 or D-4′-hydroxy)-P4. The GlcCer synthase inhibitors were added into the medium as a one to one complex with delipidated BSA. Abe, A. et al., J. Lipid. Res., 36:611-621 (1995); Abe, A. et al., Biochim. Biophys. Acta, 1299:331-341 (1996). The cells were incubated for 24 h or 48 h with the inhibitors. After the incubation, the cells were washed twice with 8 ml of cold PBS and fixed with 2 ml of cold methanol. The fixed cells were scraped and transferred to a glass tube. Another one ml of methanol was used to recover the remaining cells in the dish.
Effects of D-threo-P4, D-threo4′-hydroxy-P4 and D-threo-3,4′-ethylenedioxy-P4 on GlcCer Synthesis and Cell Growth. To confirm the cellular specificity of D-threo-3′,4′-ethylenedioxy-P4 and D-threo-(4′-hydroxy)-P4 as compared to D-threo-P4, MDCK cells were treated with different concentrations of the inhibitors. The total protein amount in each sample was determined by the BCA method. In GlcCer analysis, lipid samples and standard lipids were applied to the same HPTLC plate pre-treated with borate and developed in a solvent consisting of C/M/W (63/24/4). The level of GlcCer was estimated from a standard curve obtained using a computerized image scanner. The values were normalized on the basis of the phospholipid content. The results are shown in FIG. 7, wherein each bar is the average values from three dishes, with error bars corresponding to one standard deviation. In the control, the total protein and GlcCer were 414±47.4 μg/dish and 24.3±1.97 ng/nmol phosphate, respectively.

Turning to `CCCCCCCCCCCCCCCC(=O)N[C@H](CN1CCCC1)[C@H](O)c1ccc2c(c1)OCCO2` [D-threo-3′,4′-ethylenedioxy-P4, D-t-3′,4′-ethylenedioxy-1-phenyl-2-palmitoylamino-3-pyrrolidino-1-propanol], the “ratio of cell protein to cellular phospholipid phosphate” value is listed as 5.05±0.21 mg protein/nmol phosphate (11.3 nM), 4.84±0.90 mg protein/nmol phosphate (113 nM) and 3.97±0.29 mg protein/nmol phosphate (1130 nM).
In the case of `CCCCCCCCCCCCCCCC(=O)N[C@H](CN1CCCC1)[C@H](O)c1ccc(O)cc1` [D-threo-4′-hydroxy-P4, D-t-4′-hydroxy-1-phenyl-2-palmitoylamino-3-pyrrolidino-1-propanol], the “ratio of cell protein to cellular phospholipid phosphate” value worked out at 4.52±0.39 mg protein/nmol phosphate (11.3 nM), 4.35±0.10 mg protein/nmol phosphate (113 nM) and 3.68±0.99 mg protein/nmol phosphate (1130 nM).
